Test results from paper PMC9481570, “A small molecule antagonist of SMN disrupts the interaction between SMN and RNAP II” (Nature Communications, 2022).
No constants are given. Whether binding was seen depends on the method and setting. In cells and extracts the contact can be indirect. A yes stands for co-enrichment or nearness to the bait. Other partners may have been found.

Amino acid sequences for entries named in this document (tags omitted).
UniProt Q16637: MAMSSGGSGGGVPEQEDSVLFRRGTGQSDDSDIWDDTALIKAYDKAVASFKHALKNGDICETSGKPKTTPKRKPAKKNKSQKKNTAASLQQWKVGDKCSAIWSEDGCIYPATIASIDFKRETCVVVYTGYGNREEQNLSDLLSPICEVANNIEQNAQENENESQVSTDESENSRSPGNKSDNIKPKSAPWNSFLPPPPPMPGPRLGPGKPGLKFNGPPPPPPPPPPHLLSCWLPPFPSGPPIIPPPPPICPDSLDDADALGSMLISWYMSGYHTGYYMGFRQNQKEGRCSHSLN
UniProt O14893: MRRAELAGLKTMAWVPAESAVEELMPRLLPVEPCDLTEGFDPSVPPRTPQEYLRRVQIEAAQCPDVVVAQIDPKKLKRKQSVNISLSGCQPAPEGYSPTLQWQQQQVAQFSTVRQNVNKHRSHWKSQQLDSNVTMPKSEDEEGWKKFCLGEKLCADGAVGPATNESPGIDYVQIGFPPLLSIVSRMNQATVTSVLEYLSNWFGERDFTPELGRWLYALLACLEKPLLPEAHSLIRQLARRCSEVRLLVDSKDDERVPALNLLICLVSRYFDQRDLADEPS
UniProt Q8WXD5: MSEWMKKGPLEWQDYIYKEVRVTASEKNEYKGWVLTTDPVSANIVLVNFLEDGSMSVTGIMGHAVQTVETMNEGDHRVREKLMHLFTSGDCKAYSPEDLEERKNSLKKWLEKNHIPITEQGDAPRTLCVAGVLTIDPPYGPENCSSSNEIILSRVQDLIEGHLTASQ

Target: Survival of motor neuron (SMN), endogenous in U2OS cells (human (endogenous in U2OS)) (UniProt Q16637)
Assay: affinity purification with mass spectrometry; U2OS lysate in RIPA buffer, 20 uM biotin-labelled compound 1 (ligand of SMN) overnight at 4 °C, streptavidin beads; compared with competition by 200 uM free compound 1; three biological replicates

Row | Substance | binding
1 | GEMIN2 (from UniProt O14893 1-280) | binds
2 | GEMIN6 (from UniProt Q8WXD5 1-167) | binds
